Measured values from US20170216399A1, “COMPOSITIONS, METHODS AND USES FOR PROTECTING WHITE BLOOD CELLS FROM SUPPRESSION OR DEATH” (LOS ANGELES BIOMEDICAL RESEARCH INSTITUTE AT HARBO-UCLA …, priority 2014, published 2017).
At least one peptide structure holds a part that was inferred or is arguable (an end, a ring closure or a residue). Ends that are not written are not given here.

Test system: peripheral blood leucocytes
Conditions: HNG added to CP, tumor-bearing mice (FIG. 4D)
Experimental: Mice were injected with heparin (1300 IU/kg BW, ip) 15 min before sacrifice by sodium pentobarbital (200 mg/kg BW IP). Body weight (BW) was recorded at autopsy. Blood samples were collected from the right ventricle of each mouse immediately after death and used for complete blood count using an automated cell counter (VetScanHM2, ABAXIS, Union City, Calif.). Plasma was separated and stored at −20° C. for subsequent HNG, IGF-1 and IGFBP-1 measurements by specific and sensitive ELISA assays as previously described (Chin et al., Endocrinology. 2013; 154:3739-44; Hwang et al, Growth Horm IGF Res 2008; 18: 65-74).
Twenty-five young adult (12-week-old) male mice (C57BL/6J) were used for this experiment in which 5 mice were used as control and 20 mice of each were intravenously inoculated via the tail vein with 1×10^5 murine B16 melanoma cells. 20 tumor-bearing mice were randomly divided into 4 groups with 5 mice in each group received 1) no treatment; 2) HNG alone; 3) CP alone; and 4) a combination treatment with the doses and duration described above.

Sequence: MAPRGFSCLLLLTGEIDLPVKRRA [HNG]
- decrease in lymphocytes induced by a single dose of CP: did not significantly rescue
